Results reported in patent US20120315281A1, “TREATMENT OF RENAL INJURY” (THE PENN STATE RESEARCH FOUNDATION, priority 2011, published 2012).

What was measured:
[1] = tested on: Ins2^Akita and their wild type littermate mice; experiment: Systolic blood pressure (Coda) in Ins2^Akita and wild type littermate mice; type: in vivo, mouse; details: BEC 2.3 mg/kg/day 9 weeks, 14-week of age, mean ± SEM
Description: Experiments were conducted in male Ins2^Akita and their wild type (WT) littermate mice (DBA background; Jackson Laboratories) starting at 5 weeks of age until 14 weeks of age and were approved by the Pennsylvania State University College of Medicine Institutional Animal Care and Use Committee (PSU IACUC). The Ins2^Akita mice were recommended by the Animal Models of Diabetes Complications Consortium as an optimal model of diabetic nephropathy, and the mice developed hyperglycemia at 3 weeks of age. Additional experiments were conducted in male 6-week-old mice (DBA background; Jackson Laboratories), arginase-2 (Arg2) wild type […] mice on C57B1/6 background weighing 20-22 g and were approved by the PSU IACUC. […]
BEC, a selective arginase antagonist (2.3 mg/kg/day, Cayman Chemical, Ann Arbor, Mich., USA), or vehicle (phosphate-buffered saline) was administered by continuous subcutaneous infusion for 9 weeks (in Ins2^Akita experiments) or for 6 wks (in STZ DBA mice experiments) via a mini-osmotic pump (Alzet; Durect Corporation, Palo Alto, Calif., USA) as described in CIRCULATION RESEARCH, 102(8):923-32, Apr. […] The condition of mice and body weight were monitored daily following the pump implantation.
Systolic blood pressure was measured using Coda blood pressure (Kent Scientific Corp, Torrington, Conn.). […]

[2] = tested on: Ins2^Akita and their wild type littermate mice; experiment: Characteristics of Ins2^Akita and wild type littermate mice (glucose, body weight, kidney weight, body composition) with or without arginase inhibitor; type: in vivo, mouse; details: 14-week of age, mean ± SEM; for Body Weight / Fat / Fluid / Lean: BEC 2.3 mg/kg/day 9 weeks; for Glucose: BEC 2.3 mg/kg/day via osmotic minipump 9 weeks; for Fat / Fluid / Lean: body composition
Description: Experiments were conducted in male Ins2^Akita and their wild type (WT) littermate mice (DBA background; Jackson Laboratories) starting at 5 weeks of age until 14 weeks of age and were approved by the Pennsylvania State University College of Medicine Institutional Animal Care and Use Committee (PSU IACUC). The Ins2^Akita mice were recommended by the Animal Models of Diabetes Complications Consortium as an optimal model of diabetic nephropathy, and the mice developed hyperglycemia at 3 weeks of age. Additional experiments were conducted in male 6-week-old mice (DBA background; Jackson Laboratories), arginase-2 (Arg2) wild type […] mice on C57B1/6 background weighing 20-22 g and were approved by the PSU IACUC. After an overnight fast, animals were given multiple low doses of vehicle or STZ (Sigma, St. Louis, Mo.; 50 mg/kg body wt dissolved in lactated Ringers solution) via intraperitoneal injection.
BEC, a selective arginase antagonist (2.3 mg/kg/day, Cayman Chemical, Ann Arbor, Mich., USA), or vehicle (phosphate-buffered saline) was administered by continuous subcutaneous infusion for 9 weeks (in Ins2^Akita experiments) or for 6 wks (in STZ DBA mice experiments) via a mini-osmotic pump (Alzet; Durect Corporation, Palo Alto, Calif., USA) as described in CIRCULATION RESEARCH, 102(8):923-32, Apr. 25, 2008. The osmotic pump was incubated in phosphate buffer saline (PBS) for 60-h at 37° C. prior to implantation and was implanted dorsally between shoulders. The condition of mice and body weight were monitored daily following the pump implantation.
Urinary albumin excretion (UAE) was measured by ELISA using Albuwell M (Exocell, Philadelphia, Pa.) as described previously. Blood urea nitrogen (BUN) was measured using (VITROS DT60II chemistry slides; Ortho-Clinical Diagnostics, Rochester, N.Y.). Body composition was determined using LF90 Minispec Time Domain Nuclear Magnetic Resonance Spectrometer (Bruker Optics, Billerica Mass.).
To assess the possible clinical significance of arginases in diabetic mice, the arginase-specific inhibitor BEC (2.3 mg/kg/day) was infused continuously as previously described or vehicle into Ins2^Akita mice and their wild-type littermates (DBA-background) for 9 weeks beginning at 5 weeks of age. […] There were no significant changes in systolic blood pressure (SBP) between all groups although there was a trend toward increased SBP in the Ins2^Akita groups.

[3] = control (wild type littermate) mice

`N[C@@H](CSCCB(O)O)C(=O)O` [BEC, S-(2-Boronoethyl)-L-cysteine] was tested, and the “Systolic BP” value ([1]; Ins2^Akita mice) was 134 ± 2 mmHg, the “Systolic BP” value [1, 3] was 118 ± 10 mmHg and the “Body Weight” value ([2]; Ins2^Akita mice) was 27 ± 1^++ g. The Glucose ([2]; Ins2^Akita mice) was 441 ± 17^+++ mg/dl, the Fat ([2]; Ins2^Akita mice) was 6.7 ± 0.6^+++ % and the Fluid ([2]; Ins2^Akita mice) was 6.4 ± 0.1^+ %. The Lean ([2]; Ins2^Akita mice) was 67.6 ± 1.2%, the Fat [2, 3] was 12.4 ± 0.9% and the Fluid [2, 3] was 7.9 ± 0.1%. For the same compound, the Lean [2, 3] was 66.3 ± 0.5%, the “Body Weight” value [2, 3] was 32 ± 1 g and the Glucose [2, 3] was 142 ± 7 mg/dL.
